Measured values reported in PubChem BioAssay AID493014 (National Center for Advancing Translational Sciences (NCATS), 2011).
The other results are listed elsewhere or left out. Further columns of the screen follow, without active or inactive calls. The list favours compounds with an active or inconclusive main result. Potencies come from curve fits of mixed quality, noted in brackets.

Test: qHTS Assay to Find Inhibitors of Chronic Active B-Cell Receptor Signaling
Settings: ABC-DLBCL IkBa-CBG/CBR reporter, luminescence ratio (green luciferase fused to IkBa over red control in TMD8 lymphoma cells), 4 h
Method in brief: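 TMD8 ABC-DLBCL cells carrying doxycycline-inducible green luciferase fused to IkappaBalpha plus unfused red luciferase were exposed to compounds (up to 46 uM) for 4 hrs at 37C. Activity came from the overlap-corrected green/red luminescence ratio.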

[1] = measured here: CBR red luminescence, cell number
[2] = measured here: IkBa-CBG green luminescence

SMILES	AC50 [1]	AC50 [2]
CCCNCc1cc(OCC)c(OCC(=O)Nc2ccccc2)cc1Br	35.5 µM [falling, single point]	
Cc1ccsc1C1Nc2ccc3ncccc3c2C2=C1C(=O)CC(C)(C)C2 (configuration not stated)	35.5 µM [falling, single point]	
O=C(O)CCCCCCCCCC(=O)c1cccs1	7.94 µM [falling, partial curve, poor fit]	
Cc1ccc(NC2=NC3(CCCCC3)N=C(N)N2)c(C)c1	32.6 µM [falling, partial curve, poor fit]	
O=C(CSc1nnc([C@@H]2CCCN2)o1)c1ccc(Cl)cc1	12.6 µM [rising, partial curve, poor fit]	
Cc1ccc(-n2c(SCC(=O)NC3CCCCC3)nc3c(c2=O)SCC3)cc1	20.6 µM [rising, single point]	
COc1ccc2[nH]c(-c3ccc(C)cc3)cc(=O)c2c1	2.91 µM [falling, partial curve, poor fit]	
O=C1NN(c2ccc(Br)cc2)C(=O)/C1=C\c1ccc(O)cc1O	0.398 µM [falling, full curve]	
CN(CC(=O)Nc1ccc(F)cc1Cl)Cc1cccs1	15.8 µM [rising, partial curve, poor fit]	
CCOc1cccc(Nc2ccc([N+](=O)[O-])cn2)c1	4.47 µM [rising, full curve]	
O=C(NC1CCCCCC1)C1Cc2ccccc2CN1C(=O)c1ccco1 (configuration not stated)	1.78 µM [falling, full curve]	
CN(CC(=O)NC(=O)NC1CCCCC1)CC(=O)Nc1ccc(Cl)cc1	23.1 µM [falling, single point]	
Oc1ccc2oc3c(c2c1C=NCc1ccncc1)CCCC3	12.6 µM [rising, partial curve, poor fit]	
COc1cc(CCC(=O)N2CCN(c3ccc([N+](=O)[O-])cc3)CC2)cc(OC)c1OC	20 µM [falling, single point]	
O=C(NCCc1ccc(O)c(O)c1)C1COc2ccccc2O1 (configuration not stated)	8.91 µM [falling, partial curve, poor fit]	
NC(=O)C1=C[C@H](C2CCCCC2)C[C@H](OCc2ccc(CO)cc2)O1	6.31 µM [rising, single point]	
CCOC(=O)N1CCN(Cc2nnc(-c3cccc(Br)c3)o2)CC1	35.5 µM [rising, single point]	
Cc1ccc(C)c(CN2CCCNC2=O)c1	35.5 µM [rising, single point]	
COc1ccc(OC)c(NC(=O)CSc2nnc(CCCO)n2-c2ccccc2)c1	3.26 µM [falling, full curve, poor fit]	
CCCCN(CC)CCNC(=O)c1ccc2c(Cl)c3c(nc2c1)CCC3	1 µM [falling, full curve, poor fit]	
O=C(CSc1ccc2nnc(-c3ccccn3)n2n1)Nc1nccs1	1.12 µM [falling, full curve, poor fit]	
Cc1ccc(-n2c3c(cc(C(=O)NCc4ccco4)c2=O)C(=O)CCC3)cc1	6.31 µM [falling, single point]	

SMILES	AC50 [1]	AC50 [2]
Cc1cc(C)cc(C(=O)OCC(=O)N2CCCCCC2)c1	16.4 µM [falling, partial curve]	
Cc1cc(C)n2nc(C(=O)Nc3ccc4c(c3)OCO4)nc2n1	18.4 µM [falling, single point]	
Cc1ccc(C(=O)Nc2ccccc2C(=O)O)cc1NC(=O)COc1c(C)cccc1C	0.708 µM [falling, full curve, poor fit]	
O=S(=O)(NCc1ccccc1F)NCc1ccccc1F	0.631 µM [rising, full curve, poor fit]	
Fc1cccc(Cl)c1Cc1noc(/C=C/c2ccccc2)n1	7.08 µM [rising, partial curve, poor fit]	
CCCn1nnc2sc3c(c2c1=O)CCC(C)C3 (configuration not stated)	9.2 µM [rising, partial curve, poor fit]	
Cc1ccc(C)c(NC(=O)c2cc(-c3cc(C)c(C)cc3O)n[nH]2)c1	1 µM [falling, full curve]	
COC(=O)Cn1c(=O)c2c(nc3n2CCCN3CCc2ccccc2)n(C)c1=O	3.98 µM [falling, full curve]	
Cc1ccccc1-c1ocnc1C(=O)Nc1ccccc1NC(=O)c1ccccn1	22.4 µM [falling, single point]	
COc1ccccc1OCCCCn1ncc2ccc(OC)c(OC)c2c1=O	6.31 µM [rising, partial curve, poor fit]	
CC(=C/c1ccccc1)/C=N/n1cnnc1	12.6 µM [rising, partial curve, poor fit]	
CN(C)C(=O)CCc1ccc2c3c([nH]c2c1)[C@]1(C)[C@@H](C(=O)N2CCCCC2)C[C@H](CC(=O)NCCCn2ccnc2)C(=O)N1CC3	9.2 µM [rising, partial curve, poor fit]	
O=C(CCC(=O)c1ccc(F)cc1)Nc1ccccc1Cl	8.2 µM [falling, partial curve]	
Cc1ccc(-n2cnc3cc(C(=O)NCc4ccccc4Cl)ccc32)c(C)c1	3.98 µM [falling, partial curve, poor fit]	
C=CCOc1ccc(C2NC(=O)NC(C)=C2C(=O)OC)cc1 (configuration not stated)	0.461 µM [falling, partial curve, poor fit]	
CCOC(=O)c1c(NC(=O)CN2C(=O)NC3(CCCCC3C)C2=O)sc(C(=O)N(C)C)c1C (configuration not stated)	1.3 µM [rising, full curve, poor fit]	
O=C(/C=C/c1ccccc1[N+](=O)[O-])Nc1ccccc1	35.5 µM [falling, single point]	
CCC(=O)N/C=C/n1cnc2cc(C(F)(F)F)ccc21	8.91 µM [rising, partial curve, poor fit]	
CCn1nnc(NC(=O)c2ccc(-c3ccc(Cl)cc3)o2)n1	29.1 µM [falling, single point]	
O=C(COC(=O)c1n[nH]c2ccccc12)Nc1ccccc1	22.4 µM [falling, single point]	
C=CCn1c(C)cc(C(=O)CSc2nnc3c(Cl)cc(Cl)cn23)c1C	0.0184 µM [falling, full curve, poor fit]	
O=S1(=O)CCC(n2nccc2-c2ccccc2)C1 (configuration not stated)	35.5 µM [rising, partial curve, poor fit]	

SMILES	AC50 [1]	AC50 [2]
Cc1ccc(NC(=O)N/C=C/c2ccco2)cc1	29.1 µM [falling, single point]	
Cc1cc(C(=O)N/N=C/c2ccc(C)o2)c2ccccc2n1	29.1 µM [rising, single point]	16.4 µM [falling, single point]
COC(=O)c1c(/N=C/NOCc2ccc(Cl)cc2)sc2c1CCN(c1ncc(C(F)(F)F)cc1Cl)C2	16.4 µM [rising, single point]	
OC(COc1cccc2ccccc12)CN1CCN(c2cccc(Cl)c2)CC1 (configuration not stated)	35.5 µM [falling, partial curve, poor fit]	
CC(C)CN1C(=O)c2ccc(C(=O)Nc3c[nH]c(=O)[nH]c3=O)cc2C1=O	11.2 µM [rising, single point]	
CCN(c1c(C)n(C)n(-c2ccccc2)c1=O)S(C)(=O)=O	7.31 µM [rising, partial curve, poor fit]	
CC(C)(C)OC(=O)N[C@@H](Cc1ccccc1)c1nnc(S(=O)(=O)Cc2cccc(F)c2)o1	35.5 µM [falling, single point]	
COc1ccc(NC(=O)CSc2nc(C)cc(C)n2)c([N+](=O)[O-])c1	0.708 µM [rising, full curve, poor fit]	
CCCc1nn(C)c(C(=O)Nc2ccc3ccccc3c2)c1Cl	1.3 µM [rising, full curve]	29.1 µM [falling, single point]
O=C(COc1ccc(Cl)cc1Br)NNC(=O)C(=O)N1CCCCC1	32.6 µM [rising, partial curve, poor fit]	
Oc1ccc(Br)cc1-c1cc(-c2ccccc2Cl)[nH]n1	3.55 µM [rising, full curve, poor fit]	
CCn1c(=S)[nH]c2cc(S(=O)(=O)N3CCOCC3)ccc21		11.6 µM [falling, partial curve]
OCCN1CCN(CC/C=C2/c3ccccc3Sc3ccc(Cl)cc32)CC1	10.3 µM [falling, single point]	
CC(OC(=O)CN1C(=O)c2ccccc2C1=O)C(=O)NC1(C#N)CCCCC1 (configuration not stated)	18.4 µM [rising, partial curve, poor fit]	
Cc1cc(C)c(C)c(OCC(=O)O/N=C(\N)c2ccccn2)c1	29.1 µM [falling, single point]	
COc1ccc(-c2nn(-c3ccccc3)cc2/C=N/Nc2ccc(Cl)c(C(=O)O)c2)cc1OC	28.2 µM [falling, single point]	
CCN(CC)CCCNc1cc2n(c(=O)n1)CCc1cc(OC)c(OC)cc1-2	12.6 µM [rising, single point]	
CCOc1cc(CNCCc2c[nH]c3ccccc23)cc(Cl)c1OCC(N)=O	35.5 µM [falling, single point]	31.6 µM [rising, single point]
O=C(NC1CCCCC1)c1sc(=S)n2c1[nH]c(=O)c1ccccc12	1.12 µM [rising, full curve, poor fit]	
Nc1ccccc1-c1nnn(CC(=O)Nc2ccc3c(c2)OCCO3)n1	20 µM [falling, single point]	

Entries of single compounds, looked up by structure.
`COc1ccc(NC(=O)CSc2nc(C)cc(C)n2)c([N+](=O)[O-])c1` is listed with AC50 [1]: 0.708 µM [rising, full curve, poor fit]
`CCN(CC)CCCNc1cc2n(c(=O)n1)CCc1cc(OC)c(OC)cc1-2` is listed with AC50 [1]: 12.6 µM [rising, single point]
`CCOc1cc(CNCCc2c[nH]c3ccccc23)cc(Cl)c1OCC(N)=O` is listed with AC50 [1]: 35.5 µM [falling, single point]; AC50 [2]: 31.6 µM [rising, single point]
`Cc1cc(C(=O)N/N=C/c2ccc(C)o2)c2ccccc2n1` is listed with AC50 [1]: 29.1 µM [rising, single point]; AC50 [2]: 16.4 µM [falling, single point]
